No constants are given. Whether binding was seen depends on the method and setting. In cells and extracts the contact can be indirect. Some binding calls cover weakened binding; strength is not graded here. Sequences can lack the tags named with a protein.
Key:
Assay in all cases: pull-down
[1] = target: T1, Trx-His(6)-hSLAP2 (human SLAP2 residues 29-261), from Duet-His-hSLAP2-CBL (human) (UniProt Q9H6Q3)
T1 sequence: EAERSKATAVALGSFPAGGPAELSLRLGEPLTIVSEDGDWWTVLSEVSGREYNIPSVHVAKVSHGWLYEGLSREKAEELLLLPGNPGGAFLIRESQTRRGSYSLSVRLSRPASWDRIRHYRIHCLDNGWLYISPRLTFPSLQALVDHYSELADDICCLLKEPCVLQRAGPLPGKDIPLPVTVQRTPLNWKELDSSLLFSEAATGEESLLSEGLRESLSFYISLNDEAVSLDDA

[2] = target: T2, Trx-His(6)-Δlinker-hSLAP2 (human SLAP2 residues 29-261), from Duet-His-Δlinker-hSLAP2-CBL (261) (human) (UniProt Q9H6Q3)
T2 sequence: T1 sequence

[3] = target: T3, Trx-His(6)-Δlinker-hSLAP2 with residues 255-261 deleted, from Duet-His-Δlinker-hSLAP2-CBL (254) (human) (UniProt Q9H6Q3)
T3 sequence: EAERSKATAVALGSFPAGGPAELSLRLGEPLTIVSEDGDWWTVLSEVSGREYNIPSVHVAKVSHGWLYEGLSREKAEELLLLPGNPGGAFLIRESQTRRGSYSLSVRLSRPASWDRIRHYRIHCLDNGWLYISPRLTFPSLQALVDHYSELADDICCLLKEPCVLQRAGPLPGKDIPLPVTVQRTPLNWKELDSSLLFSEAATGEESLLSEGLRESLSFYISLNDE

Measured: binding

CBL (47-357), co-expressed from MCS2 of pETDuet-1 (from UniProt P22681 47-357) (domain or fragment)
binds: all assays above
